Measured data: PubChem BioAssay AID1259405 (NCATS, 2018)
Here is one part, drawn at random, of about 50,000 deposited reagents. About 4,000 of them (8%) were called active. 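Mouse siRNA library applied to hamster cells; one well for each siRNA.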 Unmarked entries are inactive. The numbers tell different reagents against one gene apart. No sequences are given here.

- Purpose: 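Mouse-designed siRNAs used to find CHO productivity engineering targets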 (primary screen)
- Cells: Chinese hamster CHO-K1 ovary cells with stable secreted eGFP expression
- Reagent: single siRNA against mouse genes, 0.8 pmol siRNA per well (2 µl of 400 nM stock)
- Time to read-out: 3 days
- Read-out: 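Per-well intracellular GFP measured by laser scanning cytometry, plus viability from ATP luminescence, each relative to plate median of non-targeting control wells, in %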
- Direction: GFP, % of control: higher = more GFP per well, higher productivity; viability (ATP), % of control: higher = more viable cells (more ATP)
- Rule for the call: 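a knock-down is called active if GFP reaches 120% or more of non-targeting control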

target,siRNA no.,"GFP, % of control","viability (ATP), % of control"
"Bscl2 (BSCL2 lipid droplet biogenesis associated, seipin)",1,98.2,84
"Bscl2 (BSCL2 lipid droplet biogenesis associated, seipin)",2,54.5,68.7
"Bscl2 (BSCL2 lipid droplet biogenesis associated, seipin)",3,142 (active),132
U90926 (cDNA sequence U90926),1,55.3,62.1
U90926 (cDNA sequence U90926),2,129 (active),83.9
U90926 (cDNA sequence U90926),3,96.6,93.5
"Kcnk12 (potassium channel, subfamily K, member 12)",1,56,103
"Kcnk12 (potassium channel, subfamily K, member 12)",2,39.9,62.2
"Kcnk12 (potassium channel, subfamily K, member 12)",3,109,112
Ifne (interferon epsilon),1,50.3,54.8
Ifne (interferon epsilon),2,92.2,43.5
Ifne (interferon epsilon),3,67.7,64.6
Hoxb1 (homeobox B1),1,53.4,71.1
Hoxb1 (homeobox B1),2,59.8,80.1
Hoxb1 (homeobox B1),3,70.2,78.6
Slc38a8,1,63.8,68.2
Slc38a8,2,185 (active),131
Slc38a8,3,54.3,71.7
Eci1 (enoyl-Coenzyme A delta isomerase 1),1,97.4,102
Eci1 (enoyl-Coenzyme A delta isomerase 1),2,83.4,68.6
Eci1 (enoyl-Coenzyme A delta isomerase 1),3,84.7,53.2
F830208F22Rik (RIKEN cDNA F830208F22 gene),1,72.4,81.7
F830208F22Rik (RIKEN cDNA F830208F22 gene),2,72.8,75.3
F830208F22Rik (RIKEN cDNA F830208F22 gene),3,59.9,60.1
Taf12 (TATA-box binding protein associated factor 12),1,78.4,60.1
Taf12 (TATA-box binding protein associated factor 12),2,75.2,99.7
Taf12 (TATA-box binding protein associated factor 12),3,129 (active),125
Lypd6 (LY6/PLAUR domain containing 6),1,51.6,71.5
Lypd6 (LY6/PLAUR domain containing 6),2,137 (active),68.7
Lypd6 (LY6/PLAUR domain containing 6),3,79.3,84.6
Foxn1 (forkhead box N1),1,85.7,88.7
Foxn1 (forkhead box N1),2,75.2,66.5
"H2-Q8 (histocompatibility 2, Q region locus 8)",1,158 (active),98.8
"H2-Q8 (histocompatibility 2, Q region locus 8)",2,42.2,50.6
"H2-Q8 (histocompatibility 2, Q region locus 8)",3,43.5,80.5
Ptprh (protein tyrosine phosphatase receptor type H),1,176 (active),120
Ptprh (protein tyrosine phosphatase receptor type H),2,75.1,62.1
Ptprh (protein tyrosine phosphatase receptor type H),3,95.4,119
"Tas2r134 (taste receptor, type 2, member 134)",1,62.4,51.4
"Tas2r134 (taste receptor, type 2, member 134)",2,90.8,78.8
"Tas2r134 (taste receptor, type 2, member 134)",3,69.3,68.6
Anxa11 (annexin A11),1,78.9,109
Anxa11 (annexin A11),2,50.1,49.3
Anxa11 (annexin A11),3,80.8,72.6
Mettl3,1,97.4,64.1
Mettl3,2,64.5,49.2
Mettl3,3,53.4,56.8
Ogfod2,1,69.6,53.4
Ogfod2,2,82.2,98.4
Ogfod2,3,123 (active),117
Fndc9 (fibronectin type III domain containing 9),1,89.8,68.5
Fndc9 (fibronectin type III domain containing 9),2,79.5,116
Fndc9 (fibronectin type III domain containing 9),3,149 (active),152
Trim17 (tripartite motif-containing 17),1,71.9,65.5
Trim17 (tripartite motif-containing 17),2,50.8,51.7
Trim17 (tripartite motif-containing 17),3,52.9,73.4
Or6b9 (olfactory receptor family 6 subfamily B member 9),1,56.3,47.4
Or6b9 (olfactory receptor family 6 subfamily B member 9),2,70.7,71.1
Or6b9 (olfactory receptor family 6 subfamily B member 9),3,66.1,77.8
"Cyp2b19 (cytochrome P450, family 2, subfamily b, polypeptide 19)",1,70.1,68.4
"Cyp2b19 (cytochrome P450, family 2, subfamily b, polypeptide 19)",2,50.8,50.3
"Cyp2b19 (cytochrome P450, family 2, subfamily b, polypeptide 19)",3,95.7,86.7
Fgfr3 (fibroblast growth factor receptor 3),1,149 (active),97.3
Ubc (ubiquitin C),1,58.5,59.9
Ubc (ubiquitin C),2,73.3,47
Ubc (ubiquitin C),3,84.6,58.8
Or6z3 (olfactory receptor family 6 subfamily Z member 3),1,67.6,60
Or6z3 (olfactory receptor family 6 subfamily Z member 3),2,84.1,83.9
Or6z3 (olfactory receptor family 6 subfamily Z member 3),3,57.7,79.9
"Scube1 (signal peptide, CUB domain, EGF-like 1)",1,21.5,36
"Scube1 (signal peptide, CUB domain, EGF-like 1)",2,119,106
"Scube1 (signal peptide, CUB domain, EGF-like 1)",3,99.8,69.1
"Snf8 (SNF8, ESCRT-II complex subunit, homolog (S. cerevisiae))",1,69.4,72.6
"Snf8 (SNF8, ESCRT-II complex subunit, homolog (S. cerevisiae))",2,81.3,92.6
"Snf8 (SNF8, ESCRT-II complex subunit, homolog (S. cerevisiae))",3,101,97.8
Dnajc5b (DnaJ heat shock protein family (Hsp40) member C5 beta),1,130 (active),87
Dnajc5b (DnaJ heat shock protein family (Hsp40) member C5 beta),2,95.8,87.4
Dnajc5b (DnaJ heat shock protein family (Hsp40) member C5 beta),3,121 (active),128
Paral1 (PPARG activating RBM14 associated lncRNA 1),1,36.7,54.9
Paral1 (PPARG activating RBM14 associated lncRNA 1),2,67.3,79.1
Paral1 (PPARG activating RBM14 associated lncRNA 1),3,107,102
"Cope (coatomer protein complex, subunit epsilon)",1,96.8,90.1
"Cope (coatomer protein complex, subunit epsilon)",2,67.4,68.1
"Cope (coatomer protein complex, subunit epsilon)",3,88.8,79.5

Active calls (from the list above):
target,siRNA no.,"GFP, % of control","viability (ATP), % of control"
"Bscl2 (BSCL2 lipid droplet biogenesis associated, seipin)",3,142 (active),132
U90926 (cDNA sequence U90926),2,129 (active),83.9
Slc38a8,2,185 (active),131
Taf12 (TATA-box binding protein associated factor 12),3,129 (active),125
Lypd6 (LY6/PLAUR domain containing 6),2,137 (active),68.7
"H2-Q8 (histocompatibility 2, Q region locus 8)",1,158 (active),98.8
Ptprh (protein tyrosine phosphatase receptor type H),1,176 (active),120
Ogfod2,3,123 (active),117
Fndc9 (fibronectin type III domain containing 9),3,149 (active),152
Fgfr3 (fibroblast growth factor receptor 3),1,149 (active),97.3
Dnajc5b (DnaJ heat shock protein family (Hsp40) member C5 beta),1,130 (active),87
Dnajc5b (DnaJ heat shock protein family (Hsp40) member C5 beta),3,121 (active),128
